Source: PMC7566476, “MYB61 is regulated by GRF4 and promotes nitrogen utilization and biomass production in rice”
The exact form of at least one protein or probe is not confirmed. A negative result means that nothing was seen under these conditions. Protein sequences can lack the tags named with them.

Target: T1, GST-GRF4 (UniProt Q6ZIK5)
T1 sequence (looked up, limits assumed): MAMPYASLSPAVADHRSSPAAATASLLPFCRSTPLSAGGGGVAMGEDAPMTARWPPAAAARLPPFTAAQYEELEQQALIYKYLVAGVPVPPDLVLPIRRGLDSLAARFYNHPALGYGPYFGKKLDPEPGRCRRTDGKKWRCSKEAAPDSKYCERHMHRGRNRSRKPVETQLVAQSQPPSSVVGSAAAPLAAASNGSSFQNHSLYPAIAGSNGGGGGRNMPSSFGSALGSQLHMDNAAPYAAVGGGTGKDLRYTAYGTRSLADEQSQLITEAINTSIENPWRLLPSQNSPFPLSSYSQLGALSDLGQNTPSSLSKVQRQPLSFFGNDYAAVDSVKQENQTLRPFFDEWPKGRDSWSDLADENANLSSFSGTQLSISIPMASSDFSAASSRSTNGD
Experiment: EMSA
Conditions: EMSA binding buffer (Beyotime; composition, salt and pH not given), 4 °C; unlabeled competitor 50-, 100- and 500-fold; recombinant protein; protein details: N-terminal GST (pGEX-6P-1); label: biotin

## CATCGAGGGGCGGCAACTAATGTT (double strand) [MYB61 promoter motif 1 probe]
  binding result: no binding
